{
  "source": "paper PMC10046020",
  "about": "“In Silico Screening and Optimization of Cell-Penetrating Peptides Using Deep Learning Methods” (Biomolecules, 2023)",
  "origin": "cited, not measured here",
  "conditions": "Spreadsheet S1: 150 CPP and 150 non-CPP peptides collected from CellPPD, MLCPP, CPPsite 2.0, Lifetein and other publications; cited from earlier work",
  "description": "Supplement biomolecules-13-00522-s001.zip/biomolecules-2162660_Supplementary Spreadsheets S1 Test Set.csv, table | column: class || Supplement biomolecules-13-00522-s001.zip/biomolecules-2162660_Supplementary Spreadsheets S2 Train Set.csv, table | column: class",
  "data": [
    {"sequence": "GLFEAIEGFIENGWEGMIDGWYGGGGRRRRRRRRRK", "values": [
      {"measurement": "class (CPP / Non-CPP), Test Set", "result": "CPP"}
    ]}
  ]
}
